# This is one part of the list.
# B1: GS13971A-bth-447-22-447 (Bacteroides thetaiotaomicron) (protein)
# chain: EDVDNERSKGMFSASQSGFSTIEVYDLGPLNKIDLSIAKAGLEDTGGTVTFSVEQSLLDSLNNADGTSYQLLPPECYTIENATYSVSPGGDRRVTGGSLVYDPHKIYNLCGFDELKYVLPLRVSSTGTPMNSDRTATLYGFIVKEAIVRLASTGGDFVVEGGTTTSPMNLDTEISFENEWDLTTSFATKGADYVDNYNSANSTYYIPLPSDFYTLPDVTIAKGKTTGGSAISLLGETLPPGNYLLPVSLGGLSGQGDASINIDKETVANYFVIKQGGPINRDHWTVTANTEEKTGEVSAAYPHNGQTISLIDGEINTFWHSKWQGGEVAPPYEIILDMGKENSVSQLGLIARQNALTSMNLEIYAGDDGETWNLIGKYFFDGSIKTEQMVPVKACDARWIRIYIPTLGSGSSVGHLAEIYVYGTDK
# Experiments:
# Test in all cases: glycan array binding signal (z-score within array); higher = stronger binding
# Conditions in all cases: glycan notation: IUPAC condensed, linker removed
# Fuc(a1-2)Gal = biological target: Fuc(a1-2)Gal
# How it was run: (§1)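 The Consortium for Functional Glycomics database supplied 3228 glycan arrays, of which those lacking an available protein sequence were dropped. The binding signal, a within-array Z-score, was averaged across arrays of the same protein sequence and across linkers. Negative scores can be read as non-binding.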
# Fuc(a1-2)Gal(b1-3)GalNAc = biological target: Fuc(a1-2)Gal(b1-3)GalNAc
# How it was run: as §1
# [1] = biological target: Fuc(a1-2)Gal(b1-3)GalNAc(a1-3)[Fuc(a1-2)]Gal(b1-4)Glc
# How it was run: as §1
# [2] = biological target: Fuc(a1-2)Gal(b1-3)GalNAc(a1-3)[Fuc(a1-2)]Gal(b1-4)GlcNAc
# How it was run: as §1
# [3] = biological target: Fuc(a1-2)Gal(b1-3)GalNAc(b1-3)Gal
# How it was run: as §1
# [4] = biological target: Fuc(a1-2)Gal(b1-3)GalNAc(b1-3)Gal(a1-4)Gal(b1-4)Glc
# How it was run: as §1
# [5] = biological target: Fuc(a1-2)Gal(b1-3)GalNAc(b1-4)[Neu5Ac(a2-3)]Gal(b1-4)Glc
# How it was run: as §1
# Fuc(a1-2)Gal(b1-3)GlcNAc = biological target: Fuc(a1-2)Gal(b1-3)GlcNAc
# How it was run: as §1
# [6] = biological target: Fuc(a1-2)Gal(b1-3)GlcNAc(b1-2)Man(a1-3)[Fuc(a1-2)Gal(b1-3)GlcNAc(b1-2)Man(a1-6)]Man(b1-4)GlcNAc(b1-4)GlcNAc
# How it was run: as §1
# [7] = biological target: Fuc(a1-2)Gal(b1-3)GlcNAc(b1-2)Man(a1-3)[Fuc(a1-2)Gal(b1-3)GlcNAc(b1-2)Man(a1-6)]Man(b1-4)GlcNAc(b1-4)[Fuc(a1-6)]GlcNAc
# How it was run: as §1
# [8] = biological target: Fuc(a1-2)Gal(b1-3)GlcNAc(b1-3)Gal(b1-4)Glc
# How it was run: as §1
# [9] = biological target: Fuc(a1-2)Gal(b1-3)GlcNAc(b1-3)GalNAc
# How it was run: as §1
# [10] = biological target: Fuc(a1-2)Gal(b1-3)GlcNAc(b1-3)[Fuc(a1-2)Gal(b1-3)GlcNAc(b1-6)]GalNAc
# How it was run: as §1
# [11] = biological target: Fuc(a1-2)Gal(b1-3)GlcNAc(b1-3)[Gal(b1-4)GlcNAc(b1-6)]Gal(b1-4)Glc
# How it was run: as §1
# [12] = biological target: Fuc(a1-2)Gal(b1-3)GlcNAc(b1-3)[Neu5Ac(a2-6)Gal(b1-4)GlcNAc(b1-6)]Gal(b1-4)Glc
# How it was run: as §1
# [13] = biological target: Fuc(a1-2)Gal(b1-3)GlcNAc6S
# How it was run: as §1
# [14] = biological target: Fuc(a1-2)Gal(b1-3)[Fuc(a1-4)]GlcNAc
# How it was run: as §1
# [15] = biological target: Fuc(a1-2)Gal(b1-3)[Fuc(a1-4)]GlcNAc(b1-2)Man(a1-3)[Fuc(a1-2)Gal(b1-3)[Fuc(a1-4)]GlcNAc(b1-2)Man(a1-3)]Man(b1-4)GlcNAc(b1-4)GlcNAc
# How it was run: as §1
# [16] = biological target: Fuc(a1-2)Gal(b1-3)[Fuc(a1-4)]GlcNAc(b1-2)Man(a1-3)[Fuc(a1-2)Gal(b1-3)[Fuc(a1-4)]GlcNAc(b1-2)Man(a1-6)]Man(b1-4)GlcNAc(b1-4)[Fuc(a1-6)]GlcNAc(b1-4)[Fuc(a1-6)]GlcNAc
# How it was run: as §1
# [17] = biological target: Fuc(a1-2)Gal(b1-3)[Fuc(a1-4)]GlcNAc(b1-3)[Fuc(a1-3)[Gal(b1-4)]GlcNAc(b1-6)]Gal(b1-4)Glc
# How it was run: as §1
# [18] = biological target: Fuc(a1-2)Gal(b1-3)[Fuc(a1-4)]GlcNAc(b1-3)[Gal(b1-4)GlcNAc(b1-6)]Gal(b1-4)Glc
# How it was run: as §1
# Fuc(a1-2)Gal(b1-4)Glc = biological target: Fuc(a1-2)Gal(b1-4)Glc
# How it was run: as §1
# Fuc(a1-2)Gal(b1-4)Glc6S = biological target: Fuc(a1-2)Gal(b1-4)Glc6S
# How it was run: as §1
# Fuc(a1-2)Gal(b1-4)GlcNAc = biological target: Fuc(a1-2)Gal(b1-4)GlcNAc
# How it was run: as §1
# [19] = biological target: Fuc(a1-2)Gal(b1-4)GlcNAc(b1-2)Man
# How it was run: as §1
# [20] = biological target: Fuc(a1-2)Gal(b1-4)GlcNAc(b1-2)Man(a1-3)[Fuc(a1-2)Gal(b1-4)GlcNAc(b1-2)Man(a1-6)]Man(b1-4)GlcNAc(b1-4)GlcNAc
# How it was run: as §1
# [21] = biological target: Fuc(a1-2)Gal(b1-4)GlcNAc(b1-2)Man(a1-3)[Fuc(a1-2)Gal(b1-4)GlcNAc(b1-2)Man(a1-6)]Man(b1-4)GlcNAc(b1-4)[Fuc(a1-6)]GlcNAc
# How it was run: as §1
# [22] = biological target: Fuc(a1-2)Gal(b1-4)GlcNAc(b1-2)[Fuc(a1-2)Gal(b1-4)GlcNAc(b1-4)]Man(a1-3)[Fuc(a1-2)Gal(b1-4)GlcNAc(b1-2)Man(a1-6)]Man(b1-4)GlcNAc(b1-4)GlcNAc
# How it was run: as §1
# [23] = biological target: Fuc(a1-2)Gal(b1-4)GlcNAc(b1-3)Gal(b1-4)GlcNAc
# How it was run: as §1
# [24] = biological target: Fuc(a1-2)Gal(b1-4)GlcNAc(b1-3)Gal(b1-4)GlcNAc(b1-2)Man(a1-3)[Fuc(a1-2)Gal(b1-4)GlcNAc(b1-3)Gal(b1-4)GlcNAc(b1-2)Man(a1-6)]Man(b1-4)GlcNAc(b1-4)GlcNAc
# How it was run: as §1
binder,measurement,setting,value
B1,glycan array binding signal (z-score),Fuc(a1-2)Gal,-0.389
same,glycan array binding signal (z-score),Fuc(a1-2)Gal(b1-3)GalNAc,-0.778
same,glycan array binding signal (z-score),[1],0.174
same,glycan array binding signal (z-score),[2],-0.736
same,glycan array binding signal (z-score),[3],0.302
same,glycan array binding signal (z-score),[4],-0.725
same,glycan array binding signal (z-score),[5],-0.611
same,glycan array binding signal (z-score),Fuc(a1-2)Gal(b1-3)GlcNAc,0.107
same,glycan array binding signal (z-score),[6],-0.442
same,glycan array binding signal (z-score),[7],-0.945
same,glycan array binding signal (z-score),[8],-0.04
same,glycan array binding signal (z-score),[9],0.789
same,glycan array binding signal (z-score),[10],-1.1
same,glycan array binding signal (z-score),[11],-0.354
same,glycan array binding signal (z-score),[12],0.051
same,glycan array binding signal (z-score),[13],1.19
same,glycan array binding signal (z-score),[14],0.292
same,glycan array binding signal (z-score),[15],0.881
same,glycan array binding signal (z-score),[16],0.097
same,glycan array binding signal (z-score),[17],-0.966
same,glycan array binding signal (z-score),[18],-0.6
same,glycan array binding signal (z-score),Fuc(a1-2)Gal(b1-4)Glc,0.068
same,glycan array binding signal (z-score),Fuc(a1-2)Gal(b1-4)Glc6S,0.589
same,glycan array binding signal (z-score),Fuc(a1-2)Gal(b1-4)GlcNAc,-0.027
same,glycan array binding signal (z-score),[19],0.155
same,glycan array binding signal (z-score),[20],0.064
same,glycan array binding signal (z-score),[21],-1.32
same,glycan array binding signal (z-score),[22],1.39
same,glycan array binding signal (z-score),[23],-0.714
same,glycan array binding signal (z-score),[24],0.355

# Fetched one by one from the list above (2):
binder,measurement,setting,value
B1,glycan array binding signal (z-score),[8],-0.04
same,glycan array binding signal (z-score),Fuc(a1-2)Gal(b1-3)GalNAc,-0.778
